One data set concerns A-10 cells. Nature of the data set: Cellular microtubule loss by indirect immunofluorescence. The data set is classed as cell-based, rat. The conditions noted are these: Table 52; microtubule loss EC50 over MDA-MB-435 IC50. As for the experimental part:
The effects of representative compounds on cellular microtubules were evaluated in A-10 (embryonic rat vascular smooth muscle cell line) cells using indirect immunofluorescence techniques as previously described (Tinley et al., Cancer Res. 63, 3211-20 (2003)). Cells were visualized using a Nikon Eclipse 80i fluorescence microscope and NIS Elements software. Changes in both interphase and mitotic microtubules were noted and photographed. The EC50 values, the concentration that causes approximately 50% loss of interphase microtubules was determined by evaluating a range of concentrations of each compound and the percent cellular microtubule depolymerization that was observed visually at each concentration was noted.
Microtubules were visualized by indirect immunofluorescence using a β-tubulin antibody, and the DNA was visualized with DAPI. A representative concentration response curve for NT-7-16 is also shown in FIG. 1 that was used to calculate its corresponding EC50 for microtubule loss. Concentration response curves for microtubule loss were plotted using data from at least three experiments for each compound and the corresponding EC50 values for microtubule loss are presented in Table 50.
On to `CCOC(=O)c1[nH]c(C=NO)c(-c2ccc(OC)c(OC)c2OC)c1Br` (mixture of isomers) [Example 10a, Cis/Trans-3-Bromo-4-(2,3,4-trimethoxyphenyl)-5-oximino-1H-pyrrole 2-carboxylic acid ethyl ester], for which the EC50/IC50 came to 3.3.
Same read-out and setting: to `CCOC(=O)c1[nH]c(C=NOC)c(-c2ccc(OC)c(OC)c2OC)c1Br` (mixture of isomers) [Example 12, Cis/Trans-3-Bromo-4-(2,3,4-trimethoxyphenyl)-5-(O-methyl-oximino)-1H-pyrrole-2-carboxylic acid ethyl ester] belongs 2.9; to `CCOC(=O)c1[nH]c(C=NO)c(-c2ccc(OC)c(OC)c2OC)c1Cl` (mixture of isomers) [Example 21, Cis/Trans-3-chloro-4-(2,3,4-trimethoxyphenyl)-5-oximino-1H-pyrrole 2-carboxylic acid ethyl ester], 1.9; to `CCOC(=O)c1[nH]c(C=O)c(-c2ccc(OC)c(OC)c2OC)c1Br` [Example 2, 3-Bromo-4-(2,3,4-trimethoxyphenyl)-5-formyl-1H-pyrrole 2-carboxylic acid ethyl ester], 1.2.
On to `CCOC(=O)c1[nH]c(C=O)c(-c2ccc(OC)c(OC)c2OC)c1Cl` [Example 3, 3-Chloro-4-(2,3,4-trimethoxyphenyl)-5-formyl-1H-pyrrole 2-carboxylic acid ethyl ester], for which the EC50/IC50 is 1.7.
As to `CCOC(=O)c1[nH]c(C=O)c(-c2ccc(OC)c(OC)c2OC)c1I` [Example 4, 3-Iodo-4-(2,3,4-trimethoxyphenyl)-5-formyl-1H-pyrrole 2-carboxylic acid ethyl ester], the EC50/IC50 was 1.7.
Still for that read-out and setting: to `CCOC(=O)c1[nH]c(CO)c(-c2ccc(OC)c(OC)c2OC)c1Br` [Example 5, 3-Bromo-5-(hydroxymethyl)-4-(2,3,4-trimethoxyphenyl)-1H-pyrrole 2-carboxylic acid ethyl ester] belongs 3.0; to `CCOC(=O)c1[nH]c(C(F)F)c(-c2ccc(OC)c(OC)c2OC)c1Br` [Example 6, 3-Bromo-4-(2,3,4-trimethoxyphenyl)-5-(difluoromethinyl)-1H-pyrrole 2-carboxylic acid ethyl ester], 2.8; to `C=Cc1[nH]c(C(=O)OCC)c(Br)c1-c1ccc(OC)c(OC)c1OC` [Example 7, 3-Bromo-5-vinyl-4-(2,3,4-trimethoxyphenyl)-1H-pyrrole 2-carboxylic acid ethyl ester], 2.3.
Still for that read-out and setting: next, `CCOC(=O)c1[nH]c(/C=C\C(=O)OC)c(-c2ccc(OC)c(OC)c2OC)c1Br` [Example 8a, Cis-3-Bromo-5-(3-methoxy-3-oxoprop-1-en-1-yl)-4-(2,3,4-trimethoxyphenyl)-1H-pyrrole-2-carboxylic acid ethyl ester]: 2.3; `CCOC(=O)c1[nH]c(/C=C/C(=O)OC)c(-c2ccc(OC)c(OC)c2OC)c1Br` [Example 8b, Trans-3-Bromo-5-(3-methoxy-3-oxoprop-1-en-1-yl)-4-(2,3,4-trimethoxyphenyl)-1H-pyrrole-2-carboxylic acid ethyl ester]: 2.6; `CCOC(=O)c1[nH]c(C(=O)O)c(-c2ccc(OC)c(OC)c2OC)c1Br` [Example 9, 3-Bromo-4-(2,3,4-trimethoxyphenyl)-5-carboxy-1H-pyrrole 2-carboxylic acid ethyl ester]: 3.
On the same count and under the same terms, to `CCOC(=O)c1[nH]c(C=NO)c(-c2ccc(OC)c(OC)c2OC)c1Br` [Example 10c] belongs 4; to `CCOC(=O)c1[nH]c(C#N)c(-c2ccc(OC)c(OC)c2OC)c1Br` [Example 11, 3-Bromo-4-(2,3,4-trimethoxyphenyl)-5-cyano-1H-pyrrole 2-carboxylic acid ethyl ester], 4.5.
In turn, `CCOC(=O)c1[nH]c(CN)c(-c2ccc(OC)c(OC)c2OC)c1Br` [Example 13, 5-(Aminomethylene)-3-Bromo-4-(2,3,4-trimethoxyphenyl)-1H-pyrrole 2-carboxylic acid ethyl ester] returned an EC50/IC50 of 2.3.
In turn, `CCOC(=O)c1[nH]c(CN)c(-c2ccc(OC)c(OC)c2OC)c1Cl` [Example 14] yielded an EC50/IC50 of 2.7.
Regarding `CCCNC=C1NC(C(=O)OCC)C(Br)=C1c1ccc(OC)c(OC)c1OC` (stereo not drawn) [Example 17, 3-Bromo-5-(N-Propylaminomethylene)-4-(2,3,4-trimethoxyphenyl)-1H-pyrrole 2-carboxylic acid ethyl ester], the EC50/IC50 was determined as 1.9.
Still for that read-out and setting: to `CCCNC=C1NC(C(=O)OCC)C(Cl)=C1c1ccc(OC)c(OC)c1OC` (stereo not drawn) [Example 18, 3-Chloro-5-(N-Propylaminomethylene)-4-(2,3,4-Trimethoxyphenyl)-1H-pyrrole 2-carboxylic acid ethyl ester] belongs 2.5; to “Cis-3-Bromo-4-(2,3,4-trimethoxyphenyl)-5-oximino-1H-pyrrole 2-carboxylic acid ethyl ester [Example 10b]”, 4.2.

The same data set, now with this note: Table 53; own compounds.
Turning to `CCOC(=O)c1[nH]c(Br)c(-c2ccc(OC)c(OC)c2OC)c1Br` [NT-7-16, 3,5-Dibromo-4-(2,3,4-trimethoxyphenyl)-1H-pyrrole-2-carboxylic acid ethyl ester], the EC50/IC50 is recorded as 3.3.

A further data set has as its system A-10 cells.
Assay: not given
The note with it: Table 53; literature data from Da et al. 2013; cited from earlier work.
For `CCOC(=O)c1[nH]c(Br)c(-c2ccc(OC)c(OC)c2)c1Br` [JG-03-14, 4-[(3,4-dimethoxy)-phenyl]-3,5-dibromopyrrole 2-carboxylic acid ethyl ester], the EC50/IC50 is recorded as 13.6.

The values above are taken from US9944597B2, “Polysubstituted pyrroles having microtubule-disrupting, cytotoxic and antitumor activities and methods of use thereof” (THE BOARD OF REGENTS OF THE UNIVERSITY OF TEXAS SYSTEM, priority 2013, dated 2018).
